Experimental findings from PubChem BioAssay AID662 (National Center for Advancing Translational Sciences (NCATS), 2007) are described below.

The structures appear in SMILES notation. The list shows a part of the results. These are further read-outs of the screen, such as a control signal, another cell line or another target. No call is given for them. Compounds called inactive in the main read-out are mostly missing here. Potencies come from curve fits of mixed quality, noted in brackets.

The nature of the experiment: Cell signaling CRE-BLA (Fsk stim). The note with it: CHO CRE-bla reporter (cAMP response element driving beta-lactamase), forskolin EC10, beta-lactamase ratio; measured here: 460 nm blue channel. A digest of the protocol: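 CRE-bla CHO reporter cells treated with compound titration plus EC10 NKH 477 (water-soluble forskolin), incubated 3 h at 37 °C; CCF4 loading 2 h at room temperature, 460/530 nm emission ratio read, AC50 values derived for positive or negative modulators.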
Usually AC50 stands for the concentration at which the activity in the assay is half-maximal. Regarding `CCc1nnc(NC(=O)C2CCN(c3nccc(C)n3)CC2)s1`, the AC50 is 25.1 µM [rising, single point]. Regarding `Cc1cc(-c2ccccc2)nn1-c1nc2c(c(=O)[nH]c(=O)n2C)n1C`, the AC50 was 12.6 µM [rising, partial curve]. For `CCN1CCN(C(=O)c2cn(CCOC)c(=O)c3c2c2ccccc2n3C)CC1`, the AC50 is 0.0251 µM [falling, full curve, poor fit]. Take `COc1ccc(-c2nc3nc(C)c(Cc4ccccc4)c(=O)n3[nH]2)cc1`: the AC50 was 25.1 µM [rising, single point]. Take `COc1ccc(-c2nc3cnc(OC)nc3n(Cc3cccs3)c2=O)cc1`: the AC50 is 10 µM [rising, partial curve]. `O=c1cccc(-c2ccc(Br)cc2)o1`: the AC50 is 0.251 µM [rising, full curve]. Turning to `Cc1onc(-c2ccccc2)c1C(=O)Nc1ccncc1`, the AC50 is 1.58 µM [falling, partial curve].

As to `Cc1cc2nnc(SC(C)C#N)n2c2ccccc12` (stereo unspecified), the AC50 is 25.1 µM [rising, single point]. For the compound `COC(=O)[C@@H](NC(=O)NCc1cccc(OC)c1)C(C)C`, the concentration at half-maximal activity (AC50) is 3.98 µM [falling, full curve, poor fit].

For `CCNc1ncc2nc(CCc3ccccc3)c(=O)n(-c3ccc(OC)cc3)c2n1`, the AC50 was 15.8 µM [rising, partial curve]. On to `COC(=O)CN(c1ccc(OC)cc1)S(=O)(=O)c1c(C)noc1C`, for which the half-maximal activity concentration (AC50) is 0.251 µM [falling, full curve]. Regarding `CCN(CC)S(=O)(=O)c1cccc(-c2nc3n(n2)Cc2ccccc2-3)c1`, the AC50 was 2.51 µM [rising, full curve]. `COc1ccc(-c2nc3cnc(N4CCN(C)CC4)nc3n(C)c2=O)cc1`: the AC50 was 6.31 µM [rising, partial curve].

Consider `COc1ccc2nc(SCC(N)=O)[nH]c2c1`, for which the concentration at half-maximal activity (AC50) was 0.00316 µM [falling, full curve, poor fit]. In the case of `Cc1ccc2nc(NCCO)nc(-c3ccccc3)c2c1`, the half-maximal activity concentration (AC50) was 12.6 µM [rising, partial curve]. `O=C(COc1ncnc2sccc12)Nc1ccc2c(c1)OCCO2`: the AC50 was 3.16 µM [falling, single point]. On to `COc1ccc(S(=O)(=O)N2CCCC2C(=O)Nc2nnc(-c3cccnc3)s2)cc1` (stereo unspecified), for which the AC50 is 0.316 µM [falling, partial curve, poor fit]. For the compound `CCCN(CCC)c1nc2ccccc2nc1C(C#N)C(=O)OCCOC` (stereo unspecified), the AC50 was 10 µM [rising, partial curve]. For the compound `Cc1ccccc1-c1nc(CS(=O)(=O)CC(=O)N2CCc3ccccc3C2)c(C)o1`, the half-maximal activity concentration (AC50) was 12.6 µM [falling, partial curve]. As for `C=CCOc1ccc(/C(O)=C2\C(=O)C(=O)N(CCCOC)C2c2ccncc2)cc1` (stereo unspecified), the figure is 5.01 µM [falling, single point]. Turning to `CCOC(=O)c1sc(/N=C/N(C)C)c(C(=O)OCC)c1C`, the AC50 was 12.6 µM [rising, partial curve].

In the case of `Cc1ccc(S(=O)(=O)N2CCOCC2)cc1C(=O)Nc1ccc(-c2cn3ccsc3n2)cc1`, the half-maximal activity concentration (AC50) was 0.158 µM [falling, full curve, poor fit]. On to `CS(=O)(=O)Nc1cccc(-c2ccc3ncnc(NC4CCNCC4)c3c2)c1`, for which the AC50 is 3.16 µM [rising, single point].

Take `COc1cc(Nc2cc(C)nc3ncnn23)cc(OC)c1OC`: the AC50 was 10 µM [rising, single point]. Consider `COCCn1c(=O)c(-c2ccc(Cl)cc2)nc2cnc(OC)nc21`, for which the AC50 is 12.6 µM [rising, partial curve]. As for `CC(Cc1ccccc1)N/C=C1/CC(=O)NC1=O` (stereo unspecified), the figure is 0.631 µM [rising, single point]; as for `O=C(O)c1cc(C(=O)O)c(-c2ccccc2)c(C(=O)O)c1`, 0.0251 µM [falling, full curve, poor fit]; as for `CCOC(=O)N1CCN(Cc2nc3c(c(=O)n(C)c(=O)n3C)n2Cc2ccccc2C)CC1`, 5.01 µM [falling, single point]. `CCn1cc(C(=O)NCCC2=CCCCC2)c(=O)c2cc(S(=O)(=O)N(C)C)ccc21`: the AC50 was 2.51 µM [rising, partial curve]. As for `Cc1ccc(C)c(Cn2nnc3c(=O)[nH]c(C4CCCN(C(=O)C5CCC5)C4)nc32)c1` (stereo unspecified), the AC50 is 10 µM [rising, partial curve]. For the compound `CC(=O)C(C)Oc1ccc2c3c(c(=O)oc2c1)CCCCC3` (stereo unspecified), the half-maximal activity concentration (AC50) was 5.01 µM [rising, partial curve]. As for `CCS(=O)(=O)Nc1cc(-c2nc3cccnc3s2)ccc1C`, the AC50 is 10 µM [rising, partial curve]. For the compound `COc1ccc(C)cc1-n1nnnc1SCC(=O)c1cc(C)n(Cc2ccco2)c1C`, the AC50 was 10 µM [falling, partial curve]. Regarding `C/C=C/C=C/C=O`, the AC50 was 31.6 µM [falling, partial curve, poor fit]. As to `COC(=O)c1ccc(CSc2nc3ccccc3c(=O)n2-c2cccc(OC)c2)o1`, the AC50 is 3.98 µM [rising, full curve]. Consider `COc1ccc(-c2nnc3sc(-c4ccco4)nn23)cc1OC`, for which the AC50 was 15.8 µM [falling, partial curve, poor fit].

As for `O=c1cnc2cncnc2n1Cc1ccc(F)cc1`, the concentration at half-maximal activity (AC50) is 3.98 µM [rising, full curve]. Consider `O=C(CNC(=O)C1CCCCC1)NCCCO`, for which the AC50 was 0.631 µM [falling, full curve].

Take `CSc1ccc2nnc(-c3cccc(F)c3)n2n1`: the AC50 was 25.1 µM [rising, single point]. Consider `COc1ccccc1CCn1c(=O)c(-c2cc(F)cc(F)c2)nc2cncnc21`, for which the AC50 was 12.6 µM [rising, partial curve].

Take `CC(C)n1c(CCCO)nc2ccccc21`: the AC50 was 0.00316 µM [falling, full curve, poor fit]. As for `O=c1[nH]c(=O)n(Cc2ccccc2)c2nc(-c3ccco3)cc(C(F)(F)F)c12`, the figure is 2.51 µM [rising, full curve]; as for `N#CCCn1c(=O)c(-c2cccs2)nc2cnc(Nc3ccccc3)nc21`, 1.58 µM [rising, full curve]. As for `O=C(Nc1ccc2c(c1)ncn2C1CCCCC1)c1ccco1`, the figure is 12.6 µM [rising, partial curve]. With `Cc1ccc(Cn2c(SCc3cccnc3)nc3c2c(=O)n(C)c(=O)n3C)cc1`, the concentration at half-maximal activity (AC50) was 10 µM [rising, single point]. Regarding `CC(C)=CCc1c2c(c3occ(-c4ccc(O)c(O)c4)c(=O)c3c1O)C=CC(C)(C)O2`, the half-maximal activity concentration (AC50) was 1.58 µM [falling, partial curve, poor fit]. Take `CN(C)c1ccc(NC(=O)CSCc2nc3c(nnn3Cc3ccc(F)cc3)c(=O)[nH]2)cc1`: the half-maximal activity concentration (AC50) is 0.0126 µM [falling, full curve, poor fit]. As for `CCCn1c(=O)c(C)cn2nc(N)nc12`, the figure is 0.0158 µM [rising, full curve, poor fit]; as for `COCCCn1c(CCC(=O)O)ccc1-c1cccs1`, 12.6 µM [rising, single point].

On to `C[C@H]1C[C@@H]2[C@H]3CCC4=CC(=O)C=C[C@@]4(C)[C@@]3(Cl)[C@@H](O)C[C@]2(C)[C@]1(OC(=O)c1ccco1)C(=O)CCl`, for which the concentration at half-maximal activity (AC50) was 3.16 µM [rising, full curve, poor fit]. With `CN(C)c1ncc2nc(-c3cccc(C#N)c3)c(=O)n(C)c2n1`, the AC50 was 15.8 µM [rising, partial curve]. Regarding `C/C(Cl)=C\Cn1c(Nc2ccccc2)nc2c1c(=O)n(C)c(=O)n2C`, the AC50 was 10 µM [rising, single point]. Consider `CCCCN(CCCNC(=O)CN1C(=O)COc2ccccc21)c1ccccc1`, for which the half-maximal activity concentration (AC50) is 0.0126 µM [rising, full curve, poor fit]. For the compound `Cn1c(/N=C/c2cc(Cl)ccc2O)nc2ccccc21`, the half-maximal activity concentration (AC50) is 31.6 µM [falling, single point]. On to `CCc1nnc(NC(=O)CCC(=O)N2CCN(Cc3cc(F)ccc3OC)CC2)s1`, for which the half-maximal activity concentration (AC50) is 25.1 µM [rising, single point]. Consider `CCCn1c(C)cc(=O)c2cc(NC(=O)c3ccccn3)ccc21`, for which the AC50 is 6.31 µM [rising, partial curve]. For the compound `Cc1nn(C)c(C)c1S(=O)(=O)Nc1ccc2c(c1)OCO2`, the AC50 is 5.01 µM [falling, partial curve]. `CCOc1ccc(-c2nnc(-c3ccco3)o2)cc1OCC`: the AC50 is 10 µM [rising, partial curve]. As for `CCc1nc(Nc2ccc(N3CCN(C(C)=O)CC3)cc2)c2oc3ccccc3c2n1`, the AC50 was 1.26 µM [rising, partial curve]. As for `CN1CCN(c2nc(-c3ccc4c(c3)OCO4)nc3ccccc23)CC1`, the AC50 is 12.6 µM [rising, partial curve]. In the case of `COC(=O)c1ccc(CSc2nc3c(c(=O)n2-c2ccc(F)cc2)SCC3)o1`, the half-maximal activity concentration (AC50) is 10 µM [rising, partial curve].

Turning to `COc1ccc(OC)c(C2/C(=C(\O)c3c(C)nc4ccccn34)C(=O)C(=O)N2CCCN(C)C)c1` (stereo unspecified), the AC50 was 3.16 µM [rising, single point]. As for `COc1ccc2cc1Oc1ccc(cc1)C[C@@H]1c3c(cc(OC)c4c3Oc3cc5c(cc3O4)CCN[C@H]5C2)CCN1C`, the half-maximal activity concentration (AC50) was 0.631 µM [rising, full curve, poor fit]. As for `O=C(c1nc(-c2ccccc2)n(-c2ccccc2)n1)N1CCN(S(=O)(=O)c2ccccc2)CC1`, the concentration at half-maximal activity (AC50) was 0.316 µM [falling, partial curve]. Consider `CCn1cc(C(=O)NCc2cccs2)c(=O)c2cc(S(=O)(=O)N3CCOCC3)ccc21`, for which the half-maximal activity concentration (AC50) is 15.8 µM [rising, single point]. With `COc1ccc(CCN2CC(O)=C(c3nc4ccccc4c(=O)[nH]3)C2=N)cc1OC`, the AC50 is 2.51 µM [rising, single point].
